Test results as given in patent publication US12332198B2, “Metabolite based diagnostics for periprosthetic joint infection” (priority 2022, dated 2025).

System: P. aeruginosa PAO1
Assay: Untargeted NMR-based metabolomics, planktonic versus biofilm
Design: species or system Pseudomonas aeruginosa
Conditions: for Biofilm Average Metabolite Peak Volume: PAO1 biofilm lawn on LB agar, 48 hrs; for Biofilm Average Metabolite Peak Volume / Plank Average Metabolite Peak Volume: n=9, 2D 13C-1H HSQC; for Plank Average Metabolite Peak Volume: PAO1 planktonic culture in LB, 24 hrs; for Fold change (Biofilm/Planktonic): metabolite quantity, biofilm relative to planktonic, n=9

Row | Compound | Biofilm Average Metabolite Peak Volume | Plank Average Metabolite Peak Volume | Fold change (Biofilm/Planktonic) | Fold change (Biofilm/Planktonic) (listed as 5-aminopentanoic acid) | Fold change (Biofilm/Planktonic) (listed as glutaric acid) | Fold change (Biofilm/Planktonic) (listed as cadaverine)
1 | O=S(=O)(O)CCO [Isethionic acid] | 4.467E+07 | 1.995E+07 | 2.239 |  |  | 
2 | OC[C@H]1O[C@H](O[C@H]2[C@H](O)[C@@H](O)[C@@H](O[C@H]3[C@H](O)[C@@H](O)[C@@H](O[C@H]4[C@H](O)[C@@H](O)C(O)O[C@@H]4CO)O[C@@H]3CO)O[C@@H]2CO)[C@H](O)[C@@H](O)[C@@H]1O (stereo partly shown) [Maltotetraose] | 6.228E+08 | 8.006E+07 | 7.779 |  |  | 
3 | NCCCCC(=O)O [5-Aminopentanoic acid] | 5.967E+08 | 4.143E+09 | 0.144 | 0.14 |  | 
4 | OC[C@H]1O[C@@H](O)[C@H](O)[C@@H](O)[C@@H]1O [beta-Glucose] | 1.175E+09 | 3.022E+08 | 3.888 |  |  | 
5 | O=C(O)c1cccnc1 [Nicotinic acid] | 8.133E+07 | 2.732E+07 | 2.977 |  |  | 
6 | CC(=O)O [Acetic acid] | 1.080E+08 | 3.665E+08 | 0.295 |  |  | 
7 | O=C(O)CCCC(=O)O [Glutaric acid] | 1.388E+08 | 2.981E+09 | 0.047 |  | 0.05 | 
8 | O=C(O)[C@H](O)[C@@H](O)[C@H](O)[C@H](O)CO [Gluconic acid] | 2.029E+09 | 1.995E+07 | 101.704 |  |  | 
9 | NCCC(=O)O [beta-Alanine] | 5.638E+08 | 1.543E+08 | 3.654 |  |  | 
10 | OC[C@H]1O[C@H](O)[C@H](O)[C@@H](O)[C@@H]1O [alpha-Glucose] | 9.524E+08 | 3.402E+08 | 2.800 |  |  | 
11 | NCCCC[C@H](N)C(=O)O [lysine] |  |  | 0.69 |  |  | 
12 | CC(C)[C@H](N)C(=O)O [L-Valine] | 7.037E+08 | 2.732E+09 | 0.258 |  |  | 
13 | O=c1cc[nH]c(=O)[nH]1 [Uracil] | 8.863E+07 | 1.897E+08 | 0.467 |  |  | 
14 | CC(=O)N[C@@H](C)C(=O)O [N-Acetyl-L-Alanine] | 6.816E+08 | 2.600E+08 | 2.622 |  |  | 
15 | NCCCCCN [Cadaverine] | 1.945E+07 | 9.230E+08 | 0.021 |  |  | 0.02
16 | OC[C@H]1O[C@@H](O)[C@@H](O)[C@@H](O)[C@@H]1O [beta-Mannose] | 4.034E+07 | 2.352E+08 | 0.172 |  |  | 
17 | Cc1ccc(C(=O)O)cc1 [p-Toluic acid] | 1.207E+08 | 3.653E+07 | 3.304 |  |  | 
18 | CC(C)=O [Acetone] | 8.980E+07 | 1.995E+07 | 4.501 |  |  | 
19 | CCCCCC(=O)O [Hexanoic acid] | 1.945E+07 | 3.592E+08 | 0.054 |  |  | 
20 | CN(C)CC(=O)O [Dimethylglycine] | 2.424E+08 | 8.101E+07 | 2.992 |  |  | 
21 | CCC(N)C(=O)O (stereo not drawn) [alpha-Aminobutyric acid] | 7.573E+07 | 1.248E+09 | 0.061 |  |  | 
22 | CSC[C@H](N)C(=O)O [L-Methylcysteine] | 1.574E+08 | 2.386E+07 | 6.597 |  |  | 
23 | OC[C@@H](O)[C@@H](O)CO [Erythritol] | 1.197E+08 | 1.995E+07 | 6.000 |  |  | 
24 | CC(O)C(=O)O (stereo not shown) [Lactic acid] | 1.945E+07 | 2.022E+08 | 0.096 |  |  | 
25 | C[N+](C)(C)CC(=O)O [Betaine] | 3.740E+10 | 7.741E+10 | 0.483 |  |  | 
26 | OC[C@H]1O[C@H](O[C@H]2O[C@H](CO)[C@@H](O)[C@H](O)[C@H]2O)[C@H](O)[C@@H](O)[C@@H]1O [alpha-Trehalose] | 5.259E+09 | 1.972E+08 | 26.668 |  |  | 
